Source: article PMC5046071
These are yes or no findings as the source states them, for the method shown.

By UniProt entry, the sequences of proteins in these tests, tags left out. Where a name states a change or a piece, a line headed by the entry shows the natural chain unless it says otherwise.
UniProt P14713: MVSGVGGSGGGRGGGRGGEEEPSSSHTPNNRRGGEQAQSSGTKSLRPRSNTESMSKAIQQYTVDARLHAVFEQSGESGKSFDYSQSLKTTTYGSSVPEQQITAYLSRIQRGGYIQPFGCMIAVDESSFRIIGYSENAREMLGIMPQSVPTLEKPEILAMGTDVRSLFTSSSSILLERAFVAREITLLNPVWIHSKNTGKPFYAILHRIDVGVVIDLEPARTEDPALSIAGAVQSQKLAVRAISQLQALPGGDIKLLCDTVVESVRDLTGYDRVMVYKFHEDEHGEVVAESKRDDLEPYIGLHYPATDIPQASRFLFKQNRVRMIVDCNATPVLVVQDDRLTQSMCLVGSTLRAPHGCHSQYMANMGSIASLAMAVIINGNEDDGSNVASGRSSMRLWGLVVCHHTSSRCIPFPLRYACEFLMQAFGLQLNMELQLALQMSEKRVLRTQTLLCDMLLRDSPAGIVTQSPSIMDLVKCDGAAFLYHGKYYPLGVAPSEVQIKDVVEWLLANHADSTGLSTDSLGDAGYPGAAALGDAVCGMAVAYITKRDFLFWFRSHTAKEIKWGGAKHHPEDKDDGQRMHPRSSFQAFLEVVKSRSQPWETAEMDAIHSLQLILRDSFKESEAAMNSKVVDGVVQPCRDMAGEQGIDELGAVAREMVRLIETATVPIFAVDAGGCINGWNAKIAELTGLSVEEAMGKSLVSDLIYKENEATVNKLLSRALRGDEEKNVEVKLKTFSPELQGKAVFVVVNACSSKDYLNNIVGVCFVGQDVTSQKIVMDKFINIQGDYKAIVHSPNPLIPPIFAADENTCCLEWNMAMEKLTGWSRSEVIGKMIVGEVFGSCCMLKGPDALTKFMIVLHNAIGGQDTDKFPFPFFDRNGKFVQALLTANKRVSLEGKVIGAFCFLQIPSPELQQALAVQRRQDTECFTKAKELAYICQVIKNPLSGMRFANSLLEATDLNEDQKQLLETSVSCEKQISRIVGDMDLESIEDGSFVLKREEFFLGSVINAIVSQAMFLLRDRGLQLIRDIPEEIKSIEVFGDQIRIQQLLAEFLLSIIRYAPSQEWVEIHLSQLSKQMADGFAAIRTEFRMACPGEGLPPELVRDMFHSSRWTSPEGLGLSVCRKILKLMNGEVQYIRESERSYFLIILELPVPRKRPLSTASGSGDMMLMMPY

Assays:
[1] = biological target: Arabidopsis thaliana phytochrome B ΔNTE (90–651), lacking the N-terminal extension, holo form with PCB (Arabidopsis thaliana) (UniProt P14713); assay: SEC; Superdex 200 26/60, 2 mL/min, 50 mM Tris pH 7.8, 5 mM EDTA, 100 mM NaCl, 1 mM β-mercaptoethanol; apparent against calculated mass; self-association tested; both purified
[2] = biological target: Arabidopsis thaliana phytochrome B ΔNTE (90–651), lacking the N-terminal extension, holo form with PCB (Arabidopsis thaliana) (UniProt P14713); assay: native MS; nano-electrospray, Waters Synapt G2-S; buffer exchanged into 50 mM Tris pH 7.8, 5 mM EDTA, 1 mM β-mercaptoethanol at 4 °C directly before analysis; self-association tested; both purified
[3] = biological target: Arabidopsis thaliana phytochrome B (1–651; WT), photosensory module with N-terminal extension, holo form with PCB (Arabidopsis thaliana) (UniProt P14713); assay: SEC; Superdex 200 26/60, 2 mL/min, 50 mM Tris pH 7.8, 5 mM EDTA, 100 mM NaCl, 1 mM β-mercaptoethanol; apparent against calculated mass; self-association tested; both purified
[4] = biological target: Arabidopsis thaliana phytochrome B (1–651; WT), photosensory module with N-terminal extension, holo form with PCB (Arabidopsis thaliana) (UniProt P14713); assay: native MS; nano-electrospray, Waters Synapt G2-S; buffer exchanged into 50 mM Tris pH 7.8, 5 mM EDTA, 1 mM β-mercaptoethanol at 4 °C directly before analysis; self-association tested; both purified

Row | binding [1] | binding [2] | binding [3] | binding [4] | Substance
1 | no binding | no binding |  |  | Arabidopsis thaliana phytochrome B ΔNTE (90–651), lacking the N-terminal extension, holo form with PCB (from UniProt P14713 90-651) (domain or fragment)
2 |  |  | no binding | no binding | Arabidopsis thaliana phytochrome B (1–651; WT), photosensory module with N-terminal extension, holo form with PCB (from UniProt P14713 1-651) (domain or fragment)
